PubChem BioAssay AID1508588, Peter MacCallum Cancer Centre – 2020
Test: 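Which gene losses make BRAF-mutant melanoma cells more responsive to vemurafenib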 (primary screen). Cells: human WM266.4 melanoma cells (BRAF V600 mutant). Knock-down reagent: siRNA pool against human genes, 40 nM. Timing: 96 h from transfection to read-out. Treatment: vemurafenib 300 nM (about IC25), added 48 h after transfection, for 48 h; comparison arm got DMSO vehicle only. Measured: 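Ratios to non-targeting siRNA for cell gain, counted as DAPI nuclei after minus before drug and averaged over two replicates, and for absorbance-read medium lactate per cell; both binned into fold-change classes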. Scale: cell gain with vemurafenib: higher = more cell gain than with non-targeting siRNA; lactate per cell with vemurafenib: higher = more lactate made per cell. Hit rule: 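Enhancement is called by pairing each knock-down's vehicle-arm and drug-arm fold-change classes for viability or glycolysis; which class combinations qualify is not given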. Meaning of the calls: active = enhances vemurafenib effect; inactive = no enhancement seen.
The deposit covers about 18,000 reagents; this is a random part of them. Of all reagents, 790 (4.4%) got an active call. 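Calls rest on a combination of fold-change classes in drug and vehicle arms, not all shown here.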

TULP1 | cell gain with vemurafenib: 0.81; lactate per cell with vemurafenib: 0.94; outcome: inactive
CD244 | cell gain with vemurafenib: 1.17; lactate per cell with vemurafenib: 0.73; outcome: inactive
BPIFB1 | cell gain with vemurafenib: 0.09; lactate per cell with vemurafenib: 0.29; outcome: active
ST8SIA4 | cell gain with vemurafenib: 0.72; lactate per cell with vemurafenib: 0.96; outcome: inactive
RABGEF1 | cell gain with vemurafenib: 1.32; lactate per cell with vemurafenib: 0.77; outcome: inactive
ZNF687 | cell gain with vemurafenib: 0.44; lactate per cell with vemurafenib: 0.99; outcome: inactive
APCS | cell gain with vemurafenib: 0.84; lactate per cell with vemurafenib: 0.84; outcome: inactive
PRKACA | cell gain with vemurafenib: 0.98; lactate per cell with vemurafenib: 0.68; outcome: inactive
RPL7L1 | cell gain with vemurafenib: 0.86; lactate per cell with vemurafenib: 0.71; outcome: inactive
LHFPL3 | cell gain with vemurafenib: 0.77; lactate per cell with vemurafenib: 0.53; outcome: inactive
ARAP3 | cell gain with vemurafenib: 0.28; lactate per cell with vemurafenib: 1.86; outcome: inactive
BCHE | cell gain with vemurafenib: 0.74; lactate per cell with vemurafenib: 0.9; outcome: inactive
ATP8B3 | cell gain with vemurafenib: 0.48; lactate per cell with vemurafenib: 1.01; outcome: inactive
KRTAP4-5 | cell gain with vemurafenib: 0.72; lactate per cell with vemurafenib: 0.94; outcome: inactive
DHX35 | cell gain with vemurafenib: 0.62; lactate per cell with vemurafenib: 0.93; outcome: inactive
ABCC4 | cell gain with vemurafenib: 0.54; lactate per cell with vemurafenib: 1.67; outcome: inactive
ARHGAP15 | cell gain with vemurafenib: 0.99; lactate per cell with vemurafenib: 0.85; outcome: inactive
GZMM | cell gain with vemurafenib: 0.64; lactate per cell with vemurafenib: 1.52; outcome: inactive
USP47 | cell gain with vemurafenib: 0.96; lactate per cell with vemurafenib: 0.36; outcome: inactive
SOWAHC | cell gain with vemurafenib: 0.51; lactate per cell with vemurafenib: 1.53; outcome: inactive
NPC1 | cell gain with vemurafenib: 0.79; lactate per cell with vemurafenib: 0.77; outcome: inactive
APOL1 | cell gain with vemurafenib: 0.45; lactate per cell with vemurafenib: 0.92; outcome: inactive
ZFP36 | cell gain with vemurafenib: 0.56; lactate per cell with vemurafenib: 0.46; outcome: active
TSC2 | cell gain with vemurafenib: 0.64; lactate per cell with vemurafenib: 0.99; outcome: inactive
IER5 | cell gain with vemurafenib: 0.25; lactate per cell with vemurafenib: 0.74; outcome: inactive
LY6G6C | cell gain with vemurafenib: 0.64; lactate per cell with vemurafenib: 1.49; outcome: inactive
GADD45A | cell gain with vemurafenib: 1.03; lactate per cell with vemurafenib: 0.73; outcome: inactive
GTF2H2 | cell gain with vemurafenib: 0.71; lactate per cell with vemurafenib: 1.02; outcome: inactive
NALF1 | cell gain with vemurafenib: 1.47; lactate per cell with vemurafenib: 0.62; outcome: inactive
RFPL3 | cell gain with vemurafenib: 0.33; lactate per cell with vemurafenib: 0.84; outcome: inactive
TOMM34 | cell gain with vemurafenib: 0.38; lactate per cell with vemurafenib: -0.08; outcome: inactive
EXOC6 | cell gain with vemurafenib: 0.49; lactate per cell with vemurafenib: 0.46; outcome: inactive
CABLES2 | cell gain with vemurafenib: 0.82; lactate per cell with vemurafenib: 1.12; outcome: inactive
STOML2 | cell gain with vemurafenib: 0.25; lactate per cell with vemurafenib: 1.21; outcome: inactive
NAA40 | cell gain with vemurafenib: 0.13; lactate per cell with vemurafenib: 0.48; outcome: active
TRIM43 | cell gain with vemurafenib: 0.99; lactate per cell with vemurafenib: 0.88; outcome: inactive
ATP6V1B1 | cell gain with vemurafenib: 0.36; lactate per cell with vemurafenib: 1.59; outcome: inactive
MIOX | cell gain with vemurafenib: 0.46; lactate per cell with vemurafenib: 0.9; outcome: inactive
GRM1 | cell gain with vemurafenib: 0.57; lactate per cell with vemurafenib: 0.66; outcome: inactive
NUCLEOLIN | cell gain with vemurafenib: 0; lactate per cell with vemurafenib: 0.72; outcome: inactive
